This is an account of results in patent US20220184143A1, “COMPOSITIONS AND METHODS OF MODULATING CASOTRANSMITTER SIGNALING” (CASE WESTERN RESERVE UNIVERSITY, priority 2019, published 2022).

The chains behind the UniProt entries cited, without tags or fusion partners.
UniProt Q8NDV7: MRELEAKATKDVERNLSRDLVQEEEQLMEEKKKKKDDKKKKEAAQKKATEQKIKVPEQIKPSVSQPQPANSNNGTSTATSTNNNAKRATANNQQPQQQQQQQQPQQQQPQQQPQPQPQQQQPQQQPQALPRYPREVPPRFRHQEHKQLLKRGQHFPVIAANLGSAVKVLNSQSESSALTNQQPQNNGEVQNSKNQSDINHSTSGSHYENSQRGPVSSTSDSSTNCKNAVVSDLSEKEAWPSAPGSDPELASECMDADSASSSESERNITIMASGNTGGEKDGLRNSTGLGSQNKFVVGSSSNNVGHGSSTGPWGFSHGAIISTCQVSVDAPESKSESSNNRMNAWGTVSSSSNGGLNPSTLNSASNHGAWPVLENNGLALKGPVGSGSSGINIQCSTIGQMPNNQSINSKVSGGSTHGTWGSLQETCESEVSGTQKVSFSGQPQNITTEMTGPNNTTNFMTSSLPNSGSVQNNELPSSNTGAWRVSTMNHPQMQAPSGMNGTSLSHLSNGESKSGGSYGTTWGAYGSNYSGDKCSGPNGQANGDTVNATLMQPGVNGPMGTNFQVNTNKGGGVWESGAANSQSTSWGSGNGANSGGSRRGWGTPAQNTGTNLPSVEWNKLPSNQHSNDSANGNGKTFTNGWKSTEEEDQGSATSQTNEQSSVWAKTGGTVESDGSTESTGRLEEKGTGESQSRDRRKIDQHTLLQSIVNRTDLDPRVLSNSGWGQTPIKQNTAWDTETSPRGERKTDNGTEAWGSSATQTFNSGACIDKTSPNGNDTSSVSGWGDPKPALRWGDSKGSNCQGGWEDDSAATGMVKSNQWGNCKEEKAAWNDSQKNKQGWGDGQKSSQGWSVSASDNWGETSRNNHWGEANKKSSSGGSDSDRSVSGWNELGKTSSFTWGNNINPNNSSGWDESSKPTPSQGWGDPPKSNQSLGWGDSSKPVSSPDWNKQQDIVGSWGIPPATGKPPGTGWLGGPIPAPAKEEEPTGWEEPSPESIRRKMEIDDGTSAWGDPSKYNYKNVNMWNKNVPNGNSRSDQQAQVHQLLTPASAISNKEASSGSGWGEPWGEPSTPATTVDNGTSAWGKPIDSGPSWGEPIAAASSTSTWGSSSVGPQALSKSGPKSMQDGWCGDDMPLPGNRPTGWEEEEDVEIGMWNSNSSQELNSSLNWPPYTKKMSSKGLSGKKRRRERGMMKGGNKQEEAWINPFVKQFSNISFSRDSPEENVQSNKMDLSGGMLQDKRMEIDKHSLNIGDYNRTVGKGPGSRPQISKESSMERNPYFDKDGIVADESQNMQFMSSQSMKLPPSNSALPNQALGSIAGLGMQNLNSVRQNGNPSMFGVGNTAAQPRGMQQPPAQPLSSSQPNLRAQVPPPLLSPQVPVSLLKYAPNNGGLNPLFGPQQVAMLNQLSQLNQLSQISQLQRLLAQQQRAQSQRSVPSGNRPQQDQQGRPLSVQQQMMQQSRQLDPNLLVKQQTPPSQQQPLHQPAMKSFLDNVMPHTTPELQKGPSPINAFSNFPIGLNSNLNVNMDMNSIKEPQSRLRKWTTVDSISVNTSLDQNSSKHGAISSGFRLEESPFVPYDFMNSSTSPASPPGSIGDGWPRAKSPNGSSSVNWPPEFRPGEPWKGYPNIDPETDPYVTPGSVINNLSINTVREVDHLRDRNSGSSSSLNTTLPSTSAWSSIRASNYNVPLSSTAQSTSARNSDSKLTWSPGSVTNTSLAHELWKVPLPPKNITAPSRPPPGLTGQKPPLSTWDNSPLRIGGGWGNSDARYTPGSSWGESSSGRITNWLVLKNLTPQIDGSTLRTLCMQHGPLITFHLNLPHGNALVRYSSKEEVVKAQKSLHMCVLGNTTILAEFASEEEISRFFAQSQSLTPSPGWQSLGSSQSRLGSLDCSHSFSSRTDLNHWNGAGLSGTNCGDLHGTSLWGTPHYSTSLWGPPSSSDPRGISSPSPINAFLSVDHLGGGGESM
UniProt Q9UKV8: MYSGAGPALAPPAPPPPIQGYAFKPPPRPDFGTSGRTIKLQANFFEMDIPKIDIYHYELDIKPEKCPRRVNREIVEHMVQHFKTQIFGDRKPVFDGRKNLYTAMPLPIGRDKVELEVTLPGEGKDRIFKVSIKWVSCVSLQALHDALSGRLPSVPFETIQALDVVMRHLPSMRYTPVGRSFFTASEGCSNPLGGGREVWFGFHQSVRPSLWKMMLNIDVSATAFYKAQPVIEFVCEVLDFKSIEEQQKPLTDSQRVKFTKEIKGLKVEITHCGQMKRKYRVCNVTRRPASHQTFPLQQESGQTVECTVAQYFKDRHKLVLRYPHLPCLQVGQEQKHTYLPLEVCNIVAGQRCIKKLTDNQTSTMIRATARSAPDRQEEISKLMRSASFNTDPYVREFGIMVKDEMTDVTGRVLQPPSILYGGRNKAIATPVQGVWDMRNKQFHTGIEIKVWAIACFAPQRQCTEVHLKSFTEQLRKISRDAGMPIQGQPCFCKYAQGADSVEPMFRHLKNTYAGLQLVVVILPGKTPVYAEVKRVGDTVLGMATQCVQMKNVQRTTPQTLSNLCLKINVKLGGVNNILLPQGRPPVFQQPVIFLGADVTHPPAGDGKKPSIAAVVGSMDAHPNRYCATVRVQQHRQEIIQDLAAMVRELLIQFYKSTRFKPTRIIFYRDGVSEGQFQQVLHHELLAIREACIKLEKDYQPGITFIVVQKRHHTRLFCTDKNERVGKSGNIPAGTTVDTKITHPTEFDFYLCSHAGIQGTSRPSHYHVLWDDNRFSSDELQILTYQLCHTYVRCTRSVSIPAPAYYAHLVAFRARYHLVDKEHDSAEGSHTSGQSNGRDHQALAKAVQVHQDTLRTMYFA

The target of experiment [1] is GW182 (endogenous, HEK293 cells) (human (endogenous in HEK293 cells)) (UniProt Q8NDV7). The experiment can be described thus: immunoprecipitation of endogenous proteins, with or without NO treatment.
Experiment [2] shares this target. Put plainly: immunoprecipitation of endogenous AGO2 and of endogenous GW182, with NO treatment controls.
Experiment [3] shares this target. Put plainly: reciprocal co-immunoprecipitation, HEK293 cells transfected with FLAG-AGO2, with or without DETA-NO.
Experiment [4] shares this target. The experiment can be described thus: co-immunoprecipitation (anti-FLAG IP, GW182 blot; GW182 IP, FLAG blot), HEK293 cells.
Experiment [5] shares this target. The experiment can be described thus: immunoprecipitation with anti-Myc antibody, GW182 immunoblot, HEK293 cells. (In general: A western blot detects proteins with antibodies after separation by electrophoresis.)

No constants are given. Whether binding was seen depends on the method and setting. For some assays here: Binding seen in cells or lysates may run through a third protein. Some binding calls cover weakened binding; strength is not graded here.

“endogenous AGO2 (Argonaute-2 of cultured mammalian cells) (from UniProt Q9UKV8 1-859)”: the binding entry in experiment [1] and in experiment [2] was “binds” in each case.

Turning to “FLAG-AGO2 (FLAG-tagged wild-type human Argonaute-2) (from UniProt Q9UKV8 1-859)”, the binding result in experiment [3] and in experiment [4] was “binds” each time.

With “Myc-AGO2 (Myc-tagged wild-type human Argonaute-2) (from UniProt Q9UKV8 1-859)”, the binding entry in experiment [5] was “binds”.
